Literature values as cited in patent US20220151938A1, “TABLET FOR USE IN TREATING HUNTINGTON'S DISEASE AND METHOD OF MAKING THE SAME” (PTC Therapeutics, Inc., priority 2022, published 2022).
At least one read-out could not be matched to a standard name with certainty.

System: endogenous Huntington protein (HTT)
Conditions: as disclosed in WO2018/226622

SMILES: Cc1cn2nc(-c3cc(F)c4nc(C5CCNCC5)nnc4c3)cc(C)c2n1 [Compound 1, 7-(2,8-dimethylimidazo[1,2-b]pyridazin-6-yl)-5-fluoro-3-(piperidin-4-yl)benzo[e][1,2,4]triazine]
- inhibition of endogenous Huntington protein (HTT) in an IC50 assay: particularly potent inhibitor of HTT
